Test [1] addresses T1, Maea CTLH-CRA domain (156-279) (mouse) (UniProt Q4VC33).
T1 sequence: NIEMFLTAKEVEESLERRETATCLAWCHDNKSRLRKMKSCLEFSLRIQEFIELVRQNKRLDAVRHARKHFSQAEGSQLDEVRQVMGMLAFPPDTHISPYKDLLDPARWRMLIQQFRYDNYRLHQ
Description: native gel or EMSA; native agarose gel electrophoresis (NAGE): CTLH-CRA domains at 200 μM incubated with the partner at least 30 min at room temperature; 0.8% agarose, 25 mM Tris, 200 mM glycine, 4°C; Coomassie; both purified. For orientation: Mobility shift assays separate free from complexed probe on a gel.

The chains behind the UniProt entries cited, without tags or fusion partners. Where a name states a change or a piece, a line headed by the entry shows the natural chain unless it says otherwise. A line that says so, or that is headed by a name, gives the form on record, which may keep a tag or linker. Residues count along the entry.
Twa1 CTLH-CRA domain (58-190), wild type (Q9D7M1, residues 58-190): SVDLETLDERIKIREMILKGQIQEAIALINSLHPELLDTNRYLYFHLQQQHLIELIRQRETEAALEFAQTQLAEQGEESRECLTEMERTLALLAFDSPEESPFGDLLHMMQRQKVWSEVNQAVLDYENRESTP
Twa1_3 mutant (L122R, A151R), CTLH-CRA domain (Q9D7M1, form named): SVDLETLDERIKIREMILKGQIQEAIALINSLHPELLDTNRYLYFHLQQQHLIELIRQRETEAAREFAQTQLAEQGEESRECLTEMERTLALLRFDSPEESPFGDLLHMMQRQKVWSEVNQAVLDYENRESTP
Twa1_10 mutant (A130Q, L147F, F152Y, F160V), CTLH-CRA domain (Q9D7M1, form named): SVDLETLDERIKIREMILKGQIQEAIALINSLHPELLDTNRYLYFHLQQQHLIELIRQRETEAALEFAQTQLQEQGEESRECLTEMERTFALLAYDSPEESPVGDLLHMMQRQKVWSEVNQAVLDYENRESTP
muskelin CTLH-CRA domain (205–735 Δ248–625) (Q99PV3, form named): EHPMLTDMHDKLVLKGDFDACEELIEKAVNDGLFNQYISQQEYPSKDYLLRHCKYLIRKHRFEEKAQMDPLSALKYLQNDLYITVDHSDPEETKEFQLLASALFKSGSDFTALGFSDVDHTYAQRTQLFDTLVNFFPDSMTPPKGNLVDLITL

Test [2] addresses Twa1_10 mutant (A130Q, L147F, F152Y, F160V), CTLH-CRA domain (mouse) (UniProt Q9D7M1). Described as above.
Test [3] deals with Twa1 CTLH-CRA domain (58-190), wild type (mouse) (UniProt Q9D7M1). The test is described as above.
The target in test [4] is muskelin CTLH-CRA domain (205–735 Δ248–625) (rat) (UniProt Q99PV3). Description: SEC-MALS; purified CTLH-CRA domains alone or mixed (RanBP10 and Twa1 variants with Maea or muskelin), final concentration 250 μM, Superdex 75 10/300 GL; both purified. On the technique in general: In gel filtration, larger molecules generally elute earlier.
Test [5] has as its target Twa1 CTLH-CRA domain (58-190), wild type (mouse) (UniProt Q9D7M1). Description: ITC; muskelin CTLH-CRA (160 μM, syringe) titrated into RanBP10 or Twa1 CTLH-CRA variants (16 μM, cell); 25°C; 20 mM tricine pH 8.0, 500 mM NaCl, 1 mM TCEP; one-site model; both purified. In general terms: In ITC the heat of successive injections is recorded.

These are yes or no findings as the source states them, for the method shown. Some binding calls cover weakened binding; strength is not graded here.

Consider two substances from paper PMC13061415.

For “Twa1_3 mutant (L122R, A151R), CTLH-CRA domain (from UniProt Q9D7M1 58-190) (domain or fragment)”, the binding entry in test [1] is “no binding (tested: 200 μM)”.

For “muskelin CTLH-CRA domain (205–735 Δ248–625) (from UniProt Q99PV3 205-735) (domain or fragment)”, the binding result in test [2] was “no binding (tested: 200 μM)”; in test [3], “no binding (tested: 200 μM)”; in test [4], “binds weakly”; in test [5], “no binding (tested: 160 μM muskelin titrated into 16 μM Twa1)”.
